Experimental data reported in article PMC3823977.
Residue numbers refer to the chain shown, from its start. In names and notes the source's numbering stands. These are yes or no findings as the source states them, for the method shown. For some of these results: In cells and extracts the contact can be indirect. Some binding calls cover weakened binding; strength is not graded here. For some of these results: Sequences can lack the tags named with a protein. One block for each binder: values may come before it.

Experiments:
[1] = target: T1, SETX (1–650 wt) in the CheckMate mammalian two-hybrid system (pBIND-SETX and pACT-SETX) (human) (UniProt Q7Z333); experiment: two-hybrid; CheckMate mammalian two-hybrid (Promega), pBIND and pACT fusions, luciferase activity, three transfection experiments
T1 sequence: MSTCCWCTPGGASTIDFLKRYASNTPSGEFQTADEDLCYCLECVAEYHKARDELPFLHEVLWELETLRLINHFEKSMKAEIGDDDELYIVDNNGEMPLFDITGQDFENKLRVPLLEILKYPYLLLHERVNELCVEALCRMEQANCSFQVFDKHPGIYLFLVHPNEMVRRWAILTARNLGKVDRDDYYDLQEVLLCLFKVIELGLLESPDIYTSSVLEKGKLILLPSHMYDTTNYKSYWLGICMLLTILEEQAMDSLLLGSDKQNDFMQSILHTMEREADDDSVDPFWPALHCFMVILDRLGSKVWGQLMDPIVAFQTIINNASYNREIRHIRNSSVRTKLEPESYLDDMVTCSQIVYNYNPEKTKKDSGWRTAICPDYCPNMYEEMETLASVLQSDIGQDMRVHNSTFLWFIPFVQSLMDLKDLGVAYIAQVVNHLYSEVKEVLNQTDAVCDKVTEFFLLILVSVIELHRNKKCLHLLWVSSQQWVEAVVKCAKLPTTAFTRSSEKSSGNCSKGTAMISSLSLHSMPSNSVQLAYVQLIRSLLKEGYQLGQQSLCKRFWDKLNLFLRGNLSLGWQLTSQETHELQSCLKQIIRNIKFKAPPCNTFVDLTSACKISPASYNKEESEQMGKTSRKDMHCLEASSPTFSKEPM

[2] = target: Flag-wt-SETX, FLAG-tagged amino-terminal senataxin (1–650), wild type (human) (UniProt Q7Z333); experiment: cross-linking; HeLa cells transfected with FLAG-tagged amino-terminal senataxin, treated with disuccinimidyl suberate (DSS), anti-FLAG Western blot
[3] = target: T2, C14orf178-GFP, GFP-tagged C14orf178 isoform1 (human) (UniProt Q8N769); experiment: co-IP; HEK293 cells co-transfected, RIPA lysate, anti-GFP magnetic beads overnight at 4°C, anti-FLAG blot
T2 sequence: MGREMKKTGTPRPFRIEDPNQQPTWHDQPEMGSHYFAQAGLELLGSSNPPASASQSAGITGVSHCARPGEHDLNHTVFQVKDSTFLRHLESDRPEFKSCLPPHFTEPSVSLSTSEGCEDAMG

[4] = target: Flag-L389S-SETX, FLAG-tagged amino-terminal senataxin (1–650) with L389S (human) (UniProt Q7Z333); experiment: cross-linking; HeLa cells transfected with FLAG-tagged amino-terminal senataxin, treated with disuccinimidyl suberate (DSS), anti-FLAG Western blot
[5] = target: SETX (1–650 L389S) in the CheckMate mammalian two-hybrid system (pBIND-SETX and pACT-SETX) (human) (UniProt Q7Z333); experiment: two-hybrid; CheckMate mammalian two-hybrid (Promega), pBIND and pACT fusions, luciferase activity, three transfection experiments

- binding [1]: binds
B1: SETX (1–650 wt) in the CheckMate mammalian two-hybrid system (pBIND-SETX and pACT-SETX) (domain or fragment, UniProt Q7Z333-1 1-650)
chain: T1 sequence

- binding [3]: no binding
B2: Flag-wt-SETX, FLAG-tagged amino-terminal senataxin (1–650), wild type (domain or fragment, UniProt Q7Z333-1 1-650)
chain: T1 sequence
- binding [2]: binds

- binding [3]: binds
B3: Flag-L389S-SETX, FLAG-tagged amino-terminal senataxin (1–650) with L389S (domain or fragment, UniProt Q7Z333-1 1-650)
chain: T1 sequence with L389S
- binding [4]: binds

- binding [1]: binds
- binding [5]: binds
B4: SETX (1–650 L389S) in the CheckMate mammalian two-hybrid system (pBIND-SETX and pACT-SETX) (domain or fragment, UniProt Q7Z333-1 1-650)
chain: T1 sequence with L389S
